The entries are a selection whose mix differs from that of the whole data set. This is a noisy data set.
The targets below were run with COC(=O)/C=C/c1ccccc1 [methyl cinnamate] (assay: log2 ratio of iodoacetamide-alkyne labeling of the cysteine site, DMSO over compound (competition); higher = stronger covalent engagement of the cysteine by the compound, active = 1 or more). Settings: 500 µM; treatment time 1 h; system: HEK293T cell lysate.
Procedure, shortened: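 For each cysteine, the log2 competition ratio is mean control-channel reporter intensity over mean compound-channel reporter intensity. HEK293T lysate (2 mg/mL) was exposed to vehicle or electrophile (500 µM, 1 h, ambient temperature), labelled with iodoacetamide alkyne (1 h), clicked to sCIP-TMT reagents, digested overnight with trypsin at 37 °C, streptavidin-enriched and analysed by Orbitrap Eclipse LC-MS/MS with FAIMS and FragPipe. Cysteines quantified in only one of three replicates, each with duplicate channels, were excluded.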

Protein sequences, listed by entry. Tags and fused reporters are not part of them. Lines headed by an entry give the natural chain unless they say otherwise; changes in a name come on top.
UniProt P04818: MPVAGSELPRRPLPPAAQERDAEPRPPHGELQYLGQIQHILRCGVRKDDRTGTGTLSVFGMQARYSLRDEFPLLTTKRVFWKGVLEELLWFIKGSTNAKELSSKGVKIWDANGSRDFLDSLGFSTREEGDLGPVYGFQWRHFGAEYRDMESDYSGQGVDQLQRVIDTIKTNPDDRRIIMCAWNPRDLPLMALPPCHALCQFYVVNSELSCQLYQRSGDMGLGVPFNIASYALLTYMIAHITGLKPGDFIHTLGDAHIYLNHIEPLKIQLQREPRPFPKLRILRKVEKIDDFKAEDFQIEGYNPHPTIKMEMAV
UniProt O95347, whole entry, looked up: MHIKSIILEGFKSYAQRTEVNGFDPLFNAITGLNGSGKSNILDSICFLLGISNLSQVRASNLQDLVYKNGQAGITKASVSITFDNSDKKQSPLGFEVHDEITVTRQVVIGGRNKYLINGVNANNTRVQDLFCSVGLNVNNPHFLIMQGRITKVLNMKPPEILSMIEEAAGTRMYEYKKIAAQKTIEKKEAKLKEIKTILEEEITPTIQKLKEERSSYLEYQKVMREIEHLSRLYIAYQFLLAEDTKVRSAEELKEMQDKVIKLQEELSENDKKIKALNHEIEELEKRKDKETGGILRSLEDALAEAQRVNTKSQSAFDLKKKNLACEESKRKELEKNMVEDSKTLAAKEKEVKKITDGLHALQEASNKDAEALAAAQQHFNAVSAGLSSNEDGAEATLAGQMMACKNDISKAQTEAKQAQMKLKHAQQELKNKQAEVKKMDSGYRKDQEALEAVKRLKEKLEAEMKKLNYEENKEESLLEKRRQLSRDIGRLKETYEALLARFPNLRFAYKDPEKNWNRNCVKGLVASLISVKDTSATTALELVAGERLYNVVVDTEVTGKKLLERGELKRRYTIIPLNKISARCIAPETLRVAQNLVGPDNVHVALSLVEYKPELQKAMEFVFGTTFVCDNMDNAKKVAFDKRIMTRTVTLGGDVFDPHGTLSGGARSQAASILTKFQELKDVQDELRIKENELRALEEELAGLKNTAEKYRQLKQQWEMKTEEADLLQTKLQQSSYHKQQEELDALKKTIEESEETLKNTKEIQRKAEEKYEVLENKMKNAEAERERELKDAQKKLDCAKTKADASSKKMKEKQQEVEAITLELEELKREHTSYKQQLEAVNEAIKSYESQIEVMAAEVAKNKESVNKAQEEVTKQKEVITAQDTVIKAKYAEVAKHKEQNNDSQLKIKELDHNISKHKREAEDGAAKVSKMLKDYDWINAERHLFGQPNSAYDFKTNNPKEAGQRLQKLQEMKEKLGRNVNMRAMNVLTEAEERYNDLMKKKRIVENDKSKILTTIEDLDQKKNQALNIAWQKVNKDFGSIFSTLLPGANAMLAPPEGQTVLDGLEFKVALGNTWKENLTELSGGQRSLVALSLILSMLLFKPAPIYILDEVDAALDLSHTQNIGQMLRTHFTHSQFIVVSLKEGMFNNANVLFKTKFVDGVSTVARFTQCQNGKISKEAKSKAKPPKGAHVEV
UniProt P00491: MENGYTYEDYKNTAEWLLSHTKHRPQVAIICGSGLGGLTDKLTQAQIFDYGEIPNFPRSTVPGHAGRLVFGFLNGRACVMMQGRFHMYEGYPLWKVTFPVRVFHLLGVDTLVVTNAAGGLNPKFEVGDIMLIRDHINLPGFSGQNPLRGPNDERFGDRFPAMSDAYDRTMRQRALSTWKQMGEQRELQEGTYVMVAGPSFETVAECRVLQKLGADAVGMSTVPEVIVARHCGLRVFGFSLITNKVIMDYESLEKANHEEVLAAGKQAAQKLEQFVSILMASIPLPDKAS
UniProt P07737, whole entry, looked up: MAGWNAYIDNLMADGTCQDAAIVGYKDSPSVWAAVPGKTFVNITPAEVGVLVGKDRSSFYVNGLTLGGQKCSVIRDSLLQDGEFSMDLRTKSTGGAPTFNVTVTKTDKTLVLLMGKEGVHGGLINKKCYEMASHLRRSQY
UniProt P07814: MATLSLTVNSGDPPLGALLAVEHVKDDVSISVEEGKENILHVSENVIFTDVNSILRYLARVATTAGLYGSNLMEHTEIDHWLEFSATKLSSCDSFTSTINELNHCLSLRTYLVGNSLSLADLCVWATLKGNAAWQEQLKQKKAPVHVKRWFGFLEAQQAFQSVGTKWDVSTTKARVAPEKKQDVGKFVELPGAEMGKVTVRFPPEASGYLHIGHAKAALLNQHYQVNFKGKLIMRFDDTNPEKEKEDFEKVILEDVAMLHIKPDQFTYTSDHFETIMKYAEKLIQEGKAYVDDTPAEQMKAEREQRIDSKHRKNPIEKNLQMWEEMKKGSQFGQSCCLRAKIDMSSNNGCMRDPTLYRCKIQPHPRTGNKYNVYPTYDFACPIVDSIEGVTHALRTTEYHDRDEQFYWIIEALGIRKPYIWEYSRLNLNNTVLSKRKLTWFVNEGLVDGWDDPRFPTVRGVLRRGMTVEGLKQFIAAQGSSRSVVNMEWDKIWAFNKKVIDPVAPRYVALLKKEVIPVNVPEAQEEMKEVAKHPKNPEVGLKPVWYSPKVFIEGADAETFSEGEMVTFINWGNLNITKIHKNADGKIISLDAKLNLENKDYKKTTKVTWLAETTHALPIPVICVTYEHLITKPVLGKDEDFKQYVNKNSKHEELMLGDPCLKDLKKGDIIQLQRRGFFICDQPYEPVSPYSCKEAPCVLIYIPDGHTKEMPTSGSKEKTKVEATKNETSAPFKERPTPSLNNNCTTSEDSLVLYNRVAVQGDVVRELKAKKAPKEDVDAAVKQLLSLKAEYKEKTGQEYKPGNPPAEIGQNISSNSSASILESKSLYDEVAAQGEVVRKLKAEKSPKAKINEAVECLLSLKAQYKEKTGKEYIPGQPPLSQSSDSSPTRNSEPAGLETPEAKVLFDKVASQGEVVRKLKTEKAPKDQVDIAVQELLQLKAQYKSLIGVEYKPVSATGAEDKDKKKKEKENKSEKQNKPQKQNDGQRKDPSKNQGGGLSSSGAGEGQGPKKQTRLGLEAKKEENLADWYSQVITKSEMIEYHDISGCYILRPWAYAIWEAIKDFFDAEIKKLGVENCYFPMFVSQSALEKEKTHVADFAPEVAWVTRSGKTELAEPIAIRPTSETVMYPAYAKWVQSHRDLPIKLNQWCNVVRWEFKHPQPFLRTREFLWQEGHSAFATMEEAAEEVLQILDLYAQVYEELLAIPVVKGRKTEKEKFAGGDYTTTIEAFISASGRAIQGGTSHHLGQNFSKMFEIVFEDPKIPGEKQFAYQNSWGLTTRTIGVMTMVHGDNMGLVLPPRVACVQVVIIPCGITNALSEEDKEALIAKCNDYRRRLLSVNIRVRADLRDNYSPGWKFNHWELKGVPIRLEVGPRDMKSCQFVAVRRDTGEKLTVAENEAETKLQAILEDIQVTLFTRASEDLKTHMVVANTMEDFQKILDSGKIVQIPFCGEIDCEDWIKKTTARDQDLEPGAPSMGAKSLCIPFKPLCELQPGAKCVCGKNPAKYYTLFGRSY
UniProt P07437, whole entry, looked up: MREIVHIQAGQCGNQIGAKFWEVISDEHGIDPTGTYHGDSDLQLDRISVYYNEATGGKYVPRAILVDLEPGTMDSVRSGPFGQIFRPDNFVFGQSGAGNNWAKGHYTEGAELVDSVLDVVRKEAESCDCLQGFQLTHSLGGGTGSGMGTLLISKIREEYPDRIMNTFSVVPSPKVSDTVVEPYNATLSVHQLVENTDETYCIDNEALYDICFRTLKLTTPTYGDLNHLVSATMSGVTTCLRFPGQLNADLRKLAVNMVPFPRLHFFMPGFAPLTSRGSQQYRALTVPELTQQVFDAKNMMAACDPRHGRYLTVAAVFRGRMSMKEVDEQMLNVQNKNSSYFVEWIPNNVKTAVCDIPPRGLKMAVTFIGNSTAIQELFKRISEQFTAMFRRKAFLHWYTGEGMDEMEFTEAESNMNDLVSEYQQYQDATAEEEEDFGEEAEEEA
UniProt O95544: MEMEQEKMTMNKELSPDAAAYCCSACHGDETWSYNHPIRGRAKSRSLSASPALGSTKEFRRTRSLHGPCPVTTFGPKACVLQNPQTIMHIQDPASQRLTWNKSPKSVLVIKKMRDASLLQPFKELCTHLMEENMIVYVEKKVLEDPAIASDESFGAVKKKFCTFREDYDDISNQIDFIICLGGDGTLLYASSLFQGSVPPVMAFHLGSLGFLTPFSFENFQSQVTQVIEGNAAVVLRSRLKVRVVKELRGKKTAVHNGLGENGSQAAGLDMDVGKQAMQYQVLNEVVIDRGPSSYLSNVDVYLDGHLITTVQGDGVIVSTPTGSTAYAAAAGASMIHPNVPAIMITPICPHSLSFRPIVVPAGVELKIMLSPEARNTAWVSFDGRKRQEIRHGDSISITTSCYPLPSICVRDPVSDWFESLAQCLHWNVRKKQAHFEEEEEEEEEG
UniProt O94906: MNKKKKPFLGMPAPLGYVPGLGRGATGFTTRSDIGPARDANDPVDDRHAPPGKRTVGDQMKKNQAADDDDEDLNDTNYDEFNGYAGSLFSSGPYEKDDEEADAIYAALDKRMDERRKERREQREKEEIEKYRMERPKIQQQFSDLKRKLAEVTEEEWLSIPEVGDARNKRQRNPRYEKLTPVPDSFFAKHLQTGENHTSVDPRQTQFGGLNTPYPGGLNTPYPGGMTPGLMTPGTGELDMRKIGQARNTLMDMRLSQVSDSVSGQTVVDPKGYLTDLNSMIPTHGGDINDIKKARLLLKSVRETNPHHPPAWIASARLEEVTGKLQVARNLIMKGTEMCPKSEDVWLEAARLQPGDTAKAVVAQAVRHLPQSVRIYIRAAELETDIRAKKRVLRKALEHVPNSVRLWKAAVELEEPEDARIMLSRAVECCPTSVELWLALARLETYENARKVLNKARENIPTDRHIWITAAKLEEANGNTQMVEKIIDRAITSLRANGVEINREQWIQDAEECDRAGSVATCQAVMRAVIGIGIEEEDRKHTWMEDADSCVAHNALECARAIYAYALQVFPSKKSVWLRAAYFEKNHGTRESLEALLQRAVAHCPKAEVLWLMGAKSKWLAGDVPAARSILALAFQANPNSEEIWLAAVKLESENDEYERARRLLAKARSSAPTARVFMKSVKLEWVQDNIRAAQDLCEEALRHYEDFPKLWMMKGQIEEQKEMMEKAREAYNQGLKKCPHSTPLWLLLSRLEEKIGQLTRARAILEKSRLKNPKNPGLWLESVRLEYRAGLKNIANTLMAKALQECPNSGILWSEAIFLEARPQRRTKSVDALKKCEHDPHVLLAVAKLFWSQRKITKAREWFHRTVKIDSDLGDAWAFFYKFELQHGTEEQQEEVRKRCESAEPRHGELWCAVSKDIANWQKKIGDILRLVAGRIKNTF
UniProt O95400: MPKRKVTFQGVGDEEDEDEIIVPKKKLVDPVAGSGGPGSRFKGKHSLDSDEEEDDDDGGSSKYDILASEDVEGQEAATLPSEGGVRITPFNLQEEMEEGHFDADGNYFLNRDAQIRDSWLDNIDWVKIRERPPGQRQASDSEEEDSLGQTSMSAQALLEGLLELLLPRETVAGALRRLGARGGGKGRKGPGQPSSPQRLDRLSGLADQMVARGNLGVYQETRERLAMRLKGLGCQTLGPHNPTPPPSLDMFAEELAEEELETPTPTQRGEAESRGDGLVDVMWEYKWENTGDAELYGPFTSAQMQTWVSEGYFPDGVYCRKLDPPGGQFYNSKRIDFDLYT
UniProt O95235: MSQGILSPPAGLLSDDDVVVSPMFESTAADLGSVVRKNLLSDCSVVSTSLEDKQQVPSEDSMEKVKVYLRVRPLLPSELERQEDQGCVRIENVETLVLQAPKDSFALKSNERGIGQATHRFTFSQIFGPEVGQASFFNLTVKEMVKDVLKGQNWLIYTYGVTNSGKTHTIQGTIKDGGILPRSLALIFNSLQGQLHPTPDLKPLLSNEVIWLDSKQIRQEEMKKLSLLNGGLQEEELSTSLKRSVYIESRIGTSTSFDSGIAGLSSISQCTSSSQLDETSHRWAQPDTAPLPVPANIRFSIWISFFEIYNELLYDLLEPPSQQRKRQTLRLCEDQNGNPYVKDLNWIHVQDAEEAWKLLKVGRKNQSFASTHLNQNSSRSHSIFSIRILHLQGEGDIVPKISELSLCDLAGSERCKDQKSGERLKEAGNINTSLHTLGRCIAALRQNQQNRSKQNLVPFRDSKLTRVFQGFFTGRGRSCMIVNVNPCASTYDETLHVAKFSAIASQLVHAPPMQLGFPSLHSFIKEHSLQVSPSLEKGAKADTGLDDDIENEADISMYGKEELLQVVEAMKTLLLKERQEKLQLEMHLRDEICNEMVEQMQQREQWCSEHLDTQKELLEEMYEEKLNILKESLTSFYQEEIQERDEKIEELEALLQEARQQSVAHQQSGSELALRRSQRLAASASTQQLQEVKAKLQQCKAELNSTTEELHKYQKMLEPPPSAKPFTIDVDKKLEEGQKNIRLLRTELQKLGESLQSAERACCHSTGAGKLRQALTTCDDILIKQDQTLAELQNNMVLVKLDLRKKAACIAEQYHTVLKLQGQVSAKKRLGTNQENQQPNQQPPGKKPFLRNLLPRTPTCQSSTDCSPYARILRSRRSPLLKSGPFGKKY

log2 ratio of iodoacetamide-alkyne labeling, inactive:
PAK4 C276 (UniProt O96013) 0.135
UniProt O94901_C63 0.252
MOCS2 C10 (UniProt O96007) 0.00812
SLC25A5 C160 (UniProt P05141) 0.138
GOT2 C382 (UniProt P00505) 0.022
TYMS C180 (UniProt P04818) 0.00107
ASS1 C132 (UniProt P00966) -0.0475
NR3C1 C481 (UniProt P04150) 0.199
SMC2 C326 (UniProt O95347) 0.368
UniProt P00491_C31 0.211
PFN1 C71 (UniProt P07737) 0.0488
EPRS C1448 (UniProt P07814) 0.125
HPRT1 C23 (UniProt P00492) -0.00153
SNAPIN C66 (UniProt O95295) 0.271
CAPNS1 C190 (UniProt P04632) -0.115
HPRT1 C106 (UniProt P00492) 0.354
HERC2 C1005 (UniProt O95714) -0.271
AIFM1 C441 (UniProt O95831) -0.0235
UniProt P07437_C303 -0.0433
ACSL3 C85 (UniProt O95573) -0.245
EPRS C1148 (UniProt P07814) 0.0439
BPNT1 C206 (UniProt O95861) 0.286
EPRS C1487 (UniProt P07814) 0.00376
LDHA C293 (UniProt P00338) -0.186
PCF11 C1534 (UniProt O94913) 0.266
SVIL C178 (UniProt O95425) -0.0271
GSR C102 (UniProt P00390) 0.0491
GLS C525 (UniProt O94925) 0.064
UniProt O94804_C947 0.194
CA2 C205 (UniProt P00918) 0.04
EPHX1 C80 (UniProt P07099) -0.141
SLC25A5 C257 (UniProt P05141) 0.0477
ACSL3 C561 (UniProt O95573) 0.00662
NADK C79 (UniProt O95544) -0.134
PRPF6 C837 (UniProt O94906) -0.0345
CD2BP2 C234 (UniProt O95400) -0.134
KIF20A C43 (UniProt O95235) 0.0335

Looked up one by one from above (2):
log2 ratio of iodoacetamide-alkyne labeling, inactive:
EPRS C1148 (UniProt P07814) 0.0439
UniProt P07437_C303 -0.0433

Reference: the supplement of paper PMC11006884
